Results on five molecules are retold here after article doi:10.1101/2025.07.15.664947.

Sequences of proteins named here, by UniProt entry; tags and fusion partners are left off.
UniProt Q9UBN7: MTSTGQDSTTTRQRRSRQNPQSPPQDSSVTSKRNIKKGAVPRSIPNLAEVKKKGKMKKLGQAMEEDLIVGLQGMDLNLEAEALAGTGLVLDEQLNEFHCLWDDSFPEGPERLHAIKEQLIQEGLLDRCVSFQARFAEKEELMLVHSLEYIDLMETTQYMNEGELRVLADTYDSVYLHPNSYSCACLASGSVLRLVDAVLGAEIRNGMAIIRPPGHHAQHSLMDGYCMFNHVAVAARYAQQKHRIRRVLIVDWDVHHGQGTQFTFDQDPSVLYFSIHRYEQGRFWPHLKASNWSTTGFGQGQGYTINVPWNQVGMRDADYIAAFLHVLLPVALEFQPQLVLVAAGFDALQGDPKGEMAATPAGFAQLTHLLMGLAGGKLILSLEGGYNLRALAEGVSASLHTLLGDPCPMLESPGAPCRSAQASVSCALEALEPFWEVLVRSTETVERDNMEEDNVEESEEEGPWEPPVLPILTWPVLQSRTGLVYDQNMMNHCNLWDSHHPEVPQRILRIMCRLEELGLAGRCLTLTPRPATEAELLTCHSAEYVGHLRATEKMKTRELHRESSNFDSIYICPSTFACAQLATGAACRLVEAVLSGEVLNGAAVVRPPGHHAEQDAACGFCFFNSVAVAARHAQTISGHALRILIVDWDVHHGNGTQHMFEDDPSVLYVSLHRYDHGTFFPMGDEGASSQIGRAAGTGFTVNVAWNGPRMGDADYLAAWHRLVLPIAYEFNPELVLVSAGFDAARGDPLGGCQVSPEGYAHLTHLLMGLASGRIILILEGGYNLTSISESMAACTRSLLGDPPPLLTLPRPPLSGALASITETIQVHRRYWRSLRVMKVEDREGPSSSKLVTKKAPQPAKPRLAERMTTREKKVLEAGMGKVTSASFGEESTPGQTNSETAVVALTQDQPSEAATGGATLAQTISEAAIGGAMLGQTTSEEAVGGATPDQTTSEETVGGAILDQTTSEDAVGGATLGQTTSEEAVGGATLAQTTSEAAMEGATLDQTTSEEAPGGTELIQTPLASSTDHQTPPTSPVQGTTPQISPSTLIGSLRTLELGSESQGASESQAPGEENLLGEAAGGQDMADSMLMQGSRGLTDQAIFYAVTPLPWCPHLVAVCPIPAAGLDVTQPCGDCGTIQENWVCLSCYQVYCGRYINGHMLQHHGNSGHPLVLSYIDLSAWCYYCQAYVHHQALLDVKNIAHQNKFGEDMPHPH

Assay in all cases: co-IP
For one assay, the target named is T1, M1-Spastin^WT-FLAG (UniProt Q9UBP0).
T1 sequence: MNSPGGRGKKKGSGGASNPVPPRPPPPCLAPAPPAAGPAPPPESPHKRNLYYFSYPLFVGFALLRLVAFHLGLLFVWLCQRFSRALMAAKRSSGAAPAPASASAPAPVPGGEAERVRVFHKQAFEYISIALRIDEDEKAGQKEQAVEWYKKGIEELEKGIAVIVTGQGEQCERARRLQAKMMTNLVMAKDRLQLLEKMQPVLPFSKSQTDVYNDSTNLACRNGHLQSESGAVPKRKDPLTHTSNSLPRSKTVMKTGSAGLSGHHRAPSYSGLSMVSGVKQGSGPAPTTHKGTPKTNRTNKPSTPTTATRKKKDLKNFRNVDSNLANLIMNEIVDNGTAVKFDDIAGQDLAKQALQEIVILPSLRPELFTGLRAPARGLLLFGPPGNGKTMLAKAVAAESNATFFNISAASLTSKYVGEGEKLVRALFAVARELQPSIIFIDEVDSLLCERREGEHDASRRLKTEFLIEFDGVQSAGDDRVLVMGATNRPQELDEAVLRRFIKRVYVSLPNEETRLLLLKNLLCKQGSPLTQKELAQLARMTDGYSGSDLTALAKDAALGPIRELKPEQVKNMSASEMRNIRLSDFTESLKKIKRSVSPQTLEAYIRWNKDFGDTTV

In a further assay the target is T2, M1-Spastin^C448Y-FLAG (UniProt Q9UBP0).
T2 sequence: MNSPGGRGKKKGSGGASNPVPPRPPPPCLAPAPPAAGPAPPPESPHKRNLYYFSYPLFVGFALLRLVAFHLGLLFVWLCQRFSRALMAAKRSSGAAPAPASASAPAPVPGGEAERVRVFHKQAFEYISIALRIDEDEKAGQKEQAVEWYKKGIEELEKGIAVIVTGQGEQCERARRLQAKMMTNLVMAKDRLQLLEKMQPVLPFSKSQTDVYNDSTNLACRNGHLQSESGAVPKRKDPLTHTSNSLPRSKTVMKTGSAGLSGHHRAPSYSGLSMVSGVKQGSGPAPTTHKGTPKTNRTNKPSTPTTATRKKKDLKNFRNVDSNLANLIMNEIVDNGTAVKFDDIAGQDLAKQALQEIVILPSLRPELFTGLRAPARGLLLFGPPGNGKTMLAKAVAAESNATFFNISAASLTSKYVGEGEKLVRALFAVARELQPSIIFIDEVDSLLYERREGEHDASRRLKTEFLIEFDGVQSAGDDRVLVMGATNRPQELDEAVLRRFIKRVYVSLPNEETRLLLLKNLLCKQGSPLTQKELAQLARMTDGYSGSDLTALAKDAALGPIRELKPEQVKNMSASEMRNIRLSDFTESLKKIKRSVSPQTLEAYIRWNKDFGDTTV

The next assay deals with T3, M87-Spastin^WT-FLAG (UniProt Q9UBP0).
T3 sequence: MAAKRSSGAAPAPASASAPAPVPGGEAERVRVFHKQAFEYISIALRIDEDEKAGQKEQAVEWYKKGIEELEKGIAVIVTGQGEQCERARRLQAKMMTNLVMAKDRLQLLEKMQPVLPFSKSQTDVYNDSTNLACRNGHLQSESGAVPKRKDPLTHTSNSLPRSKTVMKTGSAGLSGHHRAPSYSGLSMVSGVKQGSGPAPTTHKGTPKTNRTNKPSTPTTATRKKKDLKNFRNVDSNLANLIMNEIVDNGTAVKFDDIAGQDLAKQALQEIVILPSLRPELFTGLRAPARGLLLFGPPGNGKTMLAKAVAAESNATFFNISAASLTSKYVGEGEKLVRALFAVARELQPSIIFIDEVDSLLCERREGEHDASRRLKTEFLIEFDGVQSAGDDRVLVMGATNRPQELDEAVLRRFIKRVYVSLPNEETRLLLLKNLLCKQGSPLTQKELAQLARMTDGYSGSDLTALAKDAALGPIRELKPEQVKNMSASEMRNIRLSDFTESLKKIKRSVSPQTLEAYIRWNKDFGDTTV

The target in a further assay is T4, M1-Spastin^S245X-FLAG (UniProt Q9UBP0).
T4 sequence: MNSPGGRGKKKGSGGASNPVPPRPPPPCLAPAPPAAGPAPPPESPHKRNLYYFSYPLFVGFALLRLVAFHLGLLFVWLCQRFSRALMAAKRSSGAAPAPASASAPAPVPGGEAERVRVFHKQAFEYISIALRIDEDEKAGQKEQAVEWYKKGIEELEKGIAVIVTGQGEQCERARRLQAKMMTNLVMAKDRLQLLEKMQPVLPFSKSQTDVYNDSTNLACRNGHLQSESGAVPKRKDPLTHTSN

Assay [1] deals with mCherry-tagged HDAC6 (histone deacetylase 6) (UniProt Q9UBN7).

Results are given in words; binding and its absence hold for the method and conditions named. Binding seen in cells or lysates may run through a third protein. Some binding calls cover weakened binding; strength is not graded here. Tags and fused reporters may be left off the sequences shown.

As to “endogenous HDAC6 (histone deacetylase 6) (from UniProt Q9UBN7 1-1215) (enzyme)”, the binding result in the assay with M1-Spastin^WT-FLAG is given as “binds”; with M1-Spastin^C448Y-FLAG, “binds”; in the assay with M87-Spastin^WT-FLAG, “no binding”; in the assay with M1-Spastin^S245X-FLAG, “binds”.

B1: M1-Spastin^WT-FLAG (protein, UniProt Q9UBP0 1-616)
chain: MNSPGGRGKKKGSGGASNPVPPRPPPPCLAPAPPAAGPAPPPESPHKRNLYYFSYPLFVGFALLRLVAFHLGLLFVWLCQRFSRALMAAKRSSGAAPAPASASAPAPVPGGEAERVRVFHKQAFEYISIALRIDEDEKAGQKEQAVEWYKKGIEELEKGIAVIVTGQGEQCERARRLQAKMMTNLVMAKDRLQLLEKMQPVLPFSKSQTDVYNDSTNLACRNGHLQSESGAVPKRKDPLTHTSNSLPRSKTVMKTGSAGLSGHHRAPSYSGLSMVSGVKQGSGPAPTTHKGTPKTNRTNKPSTPTTATRKKKDLKNFRNVDSNLANLIMNEIVDNGTAVKFDDIAGQDLAKQALQEIVILPSLRPELFTGLRAPARGLLLFGPPGNGKTMLAKAVAAESNATFFNISAASLTSKYVGEGEKLVRALFAVARELQPSIIFIDEVDSLLCERREGEHDASRRLKTEFLIEFDGVQSAGDDRVLVMGATNRPQELDEAVLRRFIKRVYVSLPNEETRLLLLKNLLCKQGSPLTQKELAQLARMTDGYSGSDLTALAKDAALGPIRELKPEQVKNMSASEMRNIRLSDFTESLKKIKRSVSPQTLEAYIRWNKDFGDTTV
As to B1, the binding result in assay [1] is “binds”.

B2: M1-Spastin^C448Y-FLAG (protein, UniProt Q9UBP0 1-616)
chain: MNSPGGRGKKKGSGGASNPVPPRPPPPCLAPAPPAAGPAPPPESPHKRNLYYFSYPLFVGFALLRLVAFHLGLLFVWLCQRFSRALMAAKRSSGAAPAPASASAPAPVPGGEAERVRVFHKQAFEYISIALRIDEDEKAGQKEQAVEWYKKGIEELEKGIAVIVTGQGEQCERARRLQAKMMTNLVMAKDRLQLLEKMQPVLPFSKSQTDVYNDSTNLACRNGHLQSESGAVPKRKDPLTHTSNSLPRSKTVMKTGSAGLSGHHRAPSYSGLSMVSGVKQGSGPAPTTHKGTPKTNRTNKPSTPTTATRKKKDLKNFRNVDSNLANLIMNEIVDNGTAVKFDDIAGQDLAKQALQEIVILPSLRPELFTGLRAPARGLLLFGPPGNGKTMLAKAVAAESNATFFNISAASLTSKYVGEGEKLVRALFAVARELQPSIIFIDEVDSLLYERREGEHDASRRLKTEFLIEFDGVQSAGDDRVLVMGATNRPQELDEAVLRRFIKRVYVSLPNEETRLLLLKNLLCKQGSPLTQKELAQLARMTDGYSGSDLTALAKDAALGPIRELKPEQVKNMSASEMRNIRLSDFTESLKKIKRSVSPQTLEAYIRWNKDFGDTTV
Turning to B2, the binding entry in assay [1] is “binds”.

B3: M1-Spastin^S245X-FLAG (domain or fragment, UniProt Q9UBP0 1-244)
chain: MNSPGGRGKKKGSGGASNPVPPRPPPPCLAPAPPAAGPAPPPESPHKRNLYYFSYPLFVGFALLRLVAFHLGLLFVWLCQRFSRALMAAKRSSGAAPAPASASAPAPVPGGEAERVRVFHKQAFEYISIALRIDEDEKAGQKEQAVEWYKKGIEELEKGIAVIVTGQGEQCERARRLQAKMMTNLVMAKDRLQLLEKMQPVLPFSKSQTDVYNDSTNLACRNGHLQSESGAVPKRKDPLTHTSN
With B3, in assay [1], the binding entry is given as “binds”.

B4: M87-Spastin^WT-FLAG (protein, UniProt Q9UBP0 87-616)
chain: MAAKRSSGAAPAPASASAPAPVPGGEAERVRVFHKQAFEYISIALRIDEDEKAGQKEQAVEWYKKGIEELEKGIAVIVTGQGEQCERARRLQAKMMTNLVMAKDRLQLLEKMQPVLPFSKSQTDVYNDSTNLACRNGHLQSESGAVPKRKDPLTHTSNSLPRSKTVMKTGSAGLSGHHRAPSYSGLSMVSGVKQGSGPAPTTHKGTPKTNRTNKPSTPTTATRKKKDLKNFRNVDSNLANLIMNEIVDNGTAVKFDDIAGQDLAKQALQEIVILPSLRPELFTGLRAPARGLLLFGPPGNGKTMLAKAVAAESNATFFNISAASLTSKYVGEGEKLVRALFAVARELQPSIIFIDEVDSLLCERREGEHDASRRLKTEFLIEFDGVQSAGDDRVLVMGATNRPQELDEAVLRRFIKRVYVSLPNEETRLLLLKNLLCKQGSPLTQKELAQLARMTDGYSGSDLTALAKDAALGPIRELKPEQVKNMSASEMRNIRLSDFTESLKKIKRSVSPQTLEAYIRWNKDFGDTTV
Consider B4, for which the binding result in assay [1] is recorded as “no binding”.
